Earlier results on one compound are cited in US5225411A, “Disubstituted polymethyleneimines” (priority 1990, dated 1993).

The conditions of the data set: agents used clinically to overcome MDR-type resistance; cited from earlier work.

With `CCCCc1oc2ccccc2c1C(=O)c1cc(I)c(OCCN(CC)CC)c(I)c1` [AMIODARONE], the “toxicity limiting clinical use” value was “toxicity limits their use considerably”.
